No constants are given. Whether binding was seen depends on the method and setting. In cells and extracts the contact can be indirect. Binding can be weak; no strength is given.
Target: mCherry-RAD54L2^ΔSIM mutant (UniProt Q9Y4B4)
Test: co-IP; mCherry IP on RFP-Trap magnetic beads, 2 hours at 4°C, from benzonase-treated extracts of RPE-1 cells, untreated or treated with 100 μM etoposide for 1 hour (also G1- or S-phase synchronized cells); IP buffer 20 mM tris-HCl pH 7.5, 150 mM NaCl, 2 mM MgCl2, 10% glycerol, 0.5% NP-40, 20 mM NEM; Western blot

Sequences of proteins named here, by UniProt entry; tags and fusion partners are left off. A change or cut given only in a name is not applied to a line headed by its entry.
UniProt Q9Y4B4: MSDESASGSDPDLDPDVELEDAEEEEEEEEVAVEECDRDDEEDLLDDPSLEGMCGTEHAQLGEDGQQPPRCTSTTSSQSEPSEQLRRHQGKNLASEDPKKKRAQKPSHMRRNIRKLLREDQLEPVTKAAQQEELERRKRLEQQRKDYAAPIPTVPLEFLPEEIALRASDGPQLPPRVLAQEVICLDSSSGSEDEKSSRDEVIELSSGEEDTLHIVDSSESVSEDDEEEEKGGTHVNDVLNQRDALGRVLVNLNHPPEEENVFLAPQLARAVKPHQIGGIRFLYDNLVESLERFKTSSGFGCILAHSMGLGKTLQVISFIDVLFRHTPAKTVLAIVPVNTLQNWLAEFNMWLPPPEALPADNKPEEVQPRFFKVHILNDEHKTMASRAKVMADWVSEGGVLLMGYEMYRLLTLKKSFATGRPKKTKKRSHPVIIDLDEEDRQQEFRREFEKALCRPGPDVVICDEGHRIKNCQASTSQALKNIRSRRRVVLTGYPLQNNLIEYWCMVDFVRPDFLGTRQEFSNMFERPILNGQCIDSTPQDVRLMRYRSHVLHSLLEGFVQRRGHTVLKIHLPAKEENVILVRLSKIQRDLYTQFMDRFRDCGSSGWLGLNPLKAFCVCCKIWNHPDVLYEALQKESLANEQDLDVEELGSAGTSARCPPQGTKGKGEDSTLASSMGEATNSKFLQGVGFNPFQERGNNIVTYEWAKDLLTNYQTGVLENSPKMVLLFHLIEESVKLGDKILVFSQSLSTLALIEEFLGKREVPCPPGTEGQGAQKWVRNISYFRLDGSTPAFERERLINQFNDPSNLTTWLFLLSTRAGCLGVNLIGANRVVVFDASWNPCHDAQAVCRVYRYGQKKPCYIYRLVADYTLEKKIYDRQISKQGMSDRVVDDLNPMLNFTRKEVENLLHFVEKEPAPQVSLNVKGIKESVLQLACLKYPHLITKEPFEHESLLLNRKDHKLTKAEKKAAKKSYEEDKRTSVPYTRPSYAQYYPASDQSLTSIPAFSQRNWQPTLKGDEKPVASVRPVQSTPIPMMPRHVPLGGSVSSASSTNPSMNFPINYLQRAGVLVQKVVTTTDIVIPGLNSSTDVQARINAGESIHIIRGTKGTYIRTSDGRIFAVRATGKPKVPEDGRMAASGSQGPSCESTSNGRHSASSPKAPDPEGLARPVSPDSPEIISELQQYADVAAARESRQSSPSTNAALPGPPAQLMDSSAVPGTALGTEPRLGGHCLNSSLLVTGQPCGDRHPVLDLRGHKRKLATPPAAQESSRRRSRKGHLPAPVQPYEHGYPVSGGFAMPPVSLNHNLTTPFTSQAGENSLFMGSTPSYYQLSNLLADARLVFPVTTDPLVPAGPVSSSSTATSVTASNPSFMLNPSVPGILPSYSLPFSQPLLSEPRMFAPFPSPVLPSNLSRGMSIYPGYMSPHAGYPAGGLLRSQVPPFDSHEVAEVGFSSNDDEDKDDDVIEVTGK
UniProt Q02880: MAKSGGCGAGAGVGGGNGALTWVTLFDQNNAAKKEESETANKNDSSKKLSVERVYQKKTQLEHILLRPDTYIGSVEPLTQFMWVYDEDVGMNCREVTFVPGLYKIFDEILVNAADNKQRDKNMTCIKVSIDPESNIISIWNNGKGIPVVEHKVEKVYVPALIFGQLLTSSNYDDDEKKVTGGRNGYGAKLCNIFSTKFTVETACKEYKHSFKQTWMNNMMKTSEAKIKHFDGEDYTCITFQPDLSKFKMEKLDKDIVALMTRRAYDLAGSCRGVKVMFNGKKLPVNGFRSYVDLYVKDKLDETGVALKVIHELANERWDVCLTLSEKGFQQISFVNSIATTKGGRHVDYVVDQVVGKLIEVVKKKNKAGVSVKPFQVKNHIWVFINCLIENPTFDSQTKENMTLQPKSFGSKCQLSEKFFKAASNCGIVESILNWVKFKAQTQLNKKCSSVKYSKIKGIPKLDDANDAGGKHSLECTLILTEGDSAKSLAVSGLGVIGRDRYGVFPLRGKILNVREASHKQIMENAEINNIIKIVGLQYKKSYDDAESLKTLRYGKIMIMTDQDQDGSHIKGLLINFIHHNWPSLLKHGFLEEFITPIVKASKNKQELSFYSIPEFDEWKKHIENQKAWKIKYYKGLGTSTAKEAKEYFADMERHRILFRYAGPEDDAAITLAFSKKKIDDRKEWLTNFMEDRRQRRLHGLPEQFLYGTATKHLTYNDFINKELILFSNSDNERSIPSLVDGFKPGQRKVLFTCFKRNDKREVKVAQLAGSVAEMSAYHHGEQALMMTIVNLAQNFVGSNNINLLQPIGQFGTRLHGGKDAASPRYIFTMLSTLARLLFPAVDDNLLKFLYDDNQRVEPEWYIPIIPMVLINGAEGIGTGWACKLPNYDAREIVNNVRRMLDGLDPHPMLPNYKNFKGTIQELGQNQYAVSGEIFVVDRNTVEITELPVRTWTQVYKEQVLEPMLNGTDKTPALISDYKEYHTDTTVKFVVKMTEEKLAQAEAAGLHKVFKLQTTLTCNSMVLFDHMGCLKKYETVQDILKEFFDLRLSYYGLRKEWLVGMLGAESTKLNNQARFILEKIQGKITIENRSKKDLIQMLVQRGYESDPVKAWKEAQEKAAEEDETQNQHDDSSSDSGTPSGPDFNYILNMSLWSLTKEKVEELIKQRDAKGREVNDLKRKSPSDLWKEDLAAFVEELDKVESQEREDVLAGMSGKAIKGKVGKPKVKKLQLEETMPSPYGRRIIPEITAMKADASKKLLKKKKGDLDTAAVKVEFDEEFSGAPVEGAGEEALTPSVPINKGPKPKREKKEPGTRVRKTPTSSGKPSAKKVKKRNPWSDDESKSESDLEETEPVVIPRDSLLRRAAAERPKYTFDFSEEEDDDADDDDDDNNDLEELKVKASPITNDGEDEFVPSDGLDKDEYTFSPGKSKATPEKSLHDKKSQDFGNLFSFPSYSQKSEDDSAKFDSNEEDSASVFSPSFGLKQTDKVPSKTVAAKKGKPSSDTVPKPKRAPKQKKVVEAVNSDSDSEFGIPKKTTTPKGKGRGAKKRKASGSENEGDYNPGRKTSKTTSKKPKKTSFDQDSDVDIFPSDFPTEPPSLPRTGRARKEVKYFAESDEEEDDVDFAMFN

Substance: Topoisomerase 2β (TOP2β) (from UniProt Q02880 1-1626) (enzyme)
- binding: binds
